Assay results from patent US7977431B2, “Dithiocarbamic esters” (LANXESS Deutschland GmbH, priority 2002, dated 2011).

What was measured:
[1] = Emulsion polymerization of chloroprene with regulator, version A (formamidinesulphinic acid initiation, 45 C); conditions: for Mn: number-average molecular weight by GPC, 15 mmol regulator, version A
[2] = Emulsion polymerization of chloroprene with regulator, version B (redox activation PPS/NHS, 10° C); conditions: Table 3, version B, 0.116 pts. of regulator, conversion 60%
[3] = Emulsion copolymerization of 94 parts chloroprene and 6 parts 2,3-dichlorobutadiene with regulator, version A; conditions: Table 3, version A, 0.233 pts. of regulator, conversion 60%
[4] = 0.075 parts of regulator, conversion 25%
[5] = 0.075 parts of regulator, conversion 41%
[6] = 0.075 parts of regulator, conversion 61%
[7] = 0.116 parts of regulator, conversion 20%
[8] = 0.116 parts of regulator, conversion 39%
[9] = 0.116 parts of regulator, conversion 60%
[10] = 0.233 parts of regulator, conversion 21%
[11] = 0.233 parts of regulator, conversion 41%
[12] = 0.233 parts of regulator, conversion 61%
[13] = 0.35 parts of regulator, conversion 19%
[14] = 0.35 parts of regulator, conversion 43%
[15] = 0.35 parts of regulator, conversion 60%
[16] = Table 3, version A, 0.116 pts. of regulator, conversion 60%
[17] = Table 3, version A, 0.35 pts. of regulator, conversion 60%
[18] = Table 3, version A, 0.233 pts. of regulator, conversion 60%
[19] = 0.75 parts of regulator, conversion 20%
[20] = 0.75 parts of regulator, conversion 40%
[21] = 0.75 parts of regulator, conversion 60%

## C/C(Cl)=C/CSC(=S)n1cccc1 [Regulator compound (1), 3-chloro-2-butenyl 1H-pyrrole-1-carbodithioate]
[1]; [4]
  Mn (GPC): 102 000
  Mw/Mn: 1.8
[1]; [5]
  Mn (GPC): 127 000
  Mw/Mn: 1.8
[1]; [6]
  Mn (GPC): 190 000
  Mw/Mn: 2.3
[1]; [7]
  Mn (GPC): 56 500
  Mw/Mn: 1.6
[1]; [8]
  Mn (GPC): 84 600
  Mw/Mn: 1.6
[1]; [9]
  Mn (GPC): 131 800
  Mw/Mn: 1.8
[1]; [10]
  Mn (GPC): 33 500
  Mw/Mn: 1.7
[1]; [11]
  Mn (GPC): 53 600
  Mw/Mn: 1.7
[1]; [12]
  Mn (GPC): 72 800
  Mw/Mn: 2.5
[1]; [13]
  Mn (GPC): 14 000
  Mw/Mn: 2.4
[1]; [14]
  Mn (GPC): 36 000
  Mw/Mn: 1.5
[1]; [15]
  Mn (GPC): 49 000
  Mw/Mn: 1.5
[1]; [16]
  Mn (GPC): 130 000
  Mw/Mn: 1.8
[1]; [17]
  Mn (GPC): 49 000
  Mw/Mn: 1.5
[1]
  Mn: 50000
[2]
  Mw/Mn: 1.7
[3]
  Mn (GPC): 74 000
  Mw/Mn: 1.6

## C/C(Cl)=C/CSC(=S)n1ccnc1 [Regulator compound (2), 3-chloro-2-butenyl 1H-imidazole-1-carbodithioate]
[1]; [18]
  Mn (GPC): 115 000
  Mw/Mn: 2.0
[1]
  Mn: 101000

## CCC1(COC(=S)SSC(=S)OCC2(CC)COCOC2)COCOC1 [Regulator compound (7), Methylenetrimeth-ylolpropane-xanthogen disulphide, reference compound]
[1]; [19]
  Mn (GPC): 148 700
  Mw/Mn: 2.1
[1]; [20]
  Mn (GPC): 142 000
  Mw/Mn: 2.3
[1]; [21]
  Mn (GPC): 148 700
  Mw/Mn: 2.6
[1]
  Mn: 168000
